The other results are listed elsewhere or left out. These are further read-outs of the screen, such as a control signal, another cell line or another target. No call is given for them. Most of these compounds were active or inconclusive in the main read-out, so they are no random draw. Potencies come from curve fits of mixed quality, noted in brackets.
Test: qHTS Assay for Lipid Storage Modulators in Drosophila S3 Cells;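 on cell number change: cells counted by Cell Tracker Red CMTPX staining in the red channel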
Conditions: BODIPY lipid droplet fluorescence, 18-24 h; for cell number change: measured here: cell count max response, cells fed with added oleic acid
How it was run: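 Drosophila S3 cells loaded with oleic acid (400 uM, as added) and compounds at several concentrations; lipid droplets imaged by 488-nm laser-scanning cytometry, 500–530 nm intensity and object ratio to cell channel. Percent activity normalized to 20 uM Triacsin C.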

[1] = measured here: lipid fluorescence (Fed channel) AC50, cells fed with added oleic acid
[2] = measured here: cell number channel AC50, cells fed with added oleic acid

SMILES	cell number change	AC50 [1]	AC50 [2]
O=S(=O)(NC1C2CC3CC(C2)CC1C3)c1ccccc1 (stereo not given)	-14.4%		
CCc1cc2c(NC(C(=O)O)C(C)C)ncnc2s1 (stereo not given)	-14.1%	32.6 µM [falling, single point]	
CC(c1ccco1)N(C(=O)c1ccccc1NS(=O)(=O)c1ccc(Cl)cc1)c1ccccn1 (stereo not given)	5.26%	5.8 µM [rising, single point]	
CC(C)C(OC(=O)Cn1nnc2ccccc21)C(=O)NC1CCCC1 (stereo not given)	9.46%		
C/C(=N\NC(=O)c1ccco1)c1cc(Cl)sc1Cl	24.6%		
CCS(=O)(=O)Nc1ccc(Cc2ccc(NS(=O)(=O)CC)cc2)cc1	84.1%	16.4 µM [rising, partial curve]	20.6 µM [rising, single point]
Cc1cc(C)nc(NC(=O)NC(=O)c2ccccc2)n1	-4.4%		
COc1cc2c(cc1OC)C(c1cccc(F)c1)CC(=O)N2 (stereo not given)	-0.351%	6.51 µM [rising, partial curve]	
CCOc1ccc(-n2c(SCc3ccc(C(=O)OC)o3)nc3c(c2=O)SCC3)cc1	4.86%	7.31 µM [rising, partial curve]	
Cc1ccc(-n2nc3c(c2NC(=O)c2ccccc2Br)CS(=O)C3)cc1 (stereo not given)	44.9%	6.51 µM [rising, full curve]	6.51 µM [rising, partial curve, poor fit]
O=c1[nH]c2ccc(Cl)cc2c(-c2ccccc2)c1N1CCOCC1	-69.1%	29.1 µM [falling, single point]	18.4 µM [falling, single point]
COC(=O)c1ccc(NC(C)C(=O)OC)c([N+](=O)[O-])c1 (stereo not given)	28.6%	29.1 µM [rising, partial curve]	
O=C(NC(N1CCCCCC1)C(Cl)(Cl)Cl)c1ccccc1Cl (stereo not given)	-59.3%	4.11 µM [falling, partial curve]	20.6 µM [falling, partial curve]
Cc1ccccc1NC(=O)COC(=O)c1ccccc1SCC(=O)N1CCCC1	-15%	18.4 µM [falling, single point]	
COc1cc(Cl)c(C)cc1NC(=O)Cc1cccs1	-17.7%	0.82 µM [falling, full curve]	
CC(=O)c1ccc(NC(=O)C2C3C=CC(O3)C2C(=O)O)cc1 (stereo not given)	8.33%	29.1 µM [falling, single point]	
CC(C)CNC(=O)c1cnn2c(C(F)(F)F)cc(C(F)(F)F)nc12	2.25%	3.26 µM [rising, single point]	
COc1ccc(NC(=O)CN2C(=O)NC(C)(C3CCCCC3)C2=O)c(OC)c1 (stereo not given)	6.52%	29.1 µM [falling, single point]	
COC(=O)C1C(=O)c2c([nH]c(C(=O)OC3CCCC3)c2C)CC1C (stereo not given)	-32%	29.1 µM [rising, single point]	
CCc1nnc(NC(=O)c2ccc(Cl)c(S(=O)(=O)N3CCc4ccccc43)c2)s1	14.5%	6.51 µM [rising, single point]	4.11 µM [rising, single point]
O=C(COC(=O)[C@@H]1CC(O)CN1S(=O)(=O)c1ccc2c(c1)OCCO2)NCc1ccc(F)cc1 (stereo not given in full)	45.9%	6.51 µM [rising, partial curve]	6.51 µM [rising, full curve, poor fit]
O=C(OCC(=O)c1cccs1)c1ccccc1	-19.4%		
COc1ccc(N2C(=O)/C(=C\c3ccco3)N=C2SCC(=O)NC(C)(C)C)cc1Cl	-13.2%	0.184 µM [falling, full curve, poor fit]	
Nc1nc(N)c(N=Nc2ccc(Cl)cc2)c(=O)[nH]1	41.7%	0.92 µM [rising, full curve]	3.66 µM [rising, full curve]
COc1cccc(CC(NC(C)=O)C(=O)NC2CCN(S(=O)(=O)c3ccc(NC(C)=O)cc3)CC2)c1 (stereo not given)	2.41%	0.103 µM [falling, full curve, poor fit]	
Fc1ccccc1COc1ccc2ccccc2c1CNc1nn[nH]n1	57.2%		3.66 µM [rising, full curve]
Cc1cc(Cn2nc(-c3ccccc3)cc2C(=O)NCc2cccc(C(F)(F)F)c2)on1	-15.5%	29.1 µM [falling, single point]	
COc1ccccc1NC(=O)C(CC=C(Cl)Cl)C(C)=O (stereo not given)	-13.2%	5.17 µM [falling, partial curve]	
Cc1cc(NC(=O)CSc2nnc(-c3ccco3)n2CC2CCCO2)no1 (stereo not given)	-0.856%	0.651 µM [rising, partial curve]	

Exported as a markdown table: entries from further up

| SMILES | cell number change | AC50 [1] | AC50 [2] |
| --- | --- | --- | --- |
| CCc1cc2c(NC(C(=O)O)C(C)C)ncnc2s1 (stereo not given) | -14.1% | 32.6 µM [falling, single point] |  |
| CC(c1ccco1)N(C(=O)c1ccccc1NS(=O)(=O)c1ccc(Cl)cc1)c1ccccn1 (stereo not given) | 5.26% | 5.8 µM [rising, single point] |  |

Reference: PubChem BioAssay AID2685 (National Center for Advancing Translational Sciences (NCATS), 2010)
